Source: article PMC12422955
No constants are given. Whether binding was seen depends on the method and setting. Binding seen in cells or lysates may run through a third protein. These calls come from enrichment with a bait or labelling near it, and not all partners need be listed.

By UniProt entry, the sequences of proteins in these tests, tags left out. Residues count along the entry.
UniProt P19490, residues 19-907: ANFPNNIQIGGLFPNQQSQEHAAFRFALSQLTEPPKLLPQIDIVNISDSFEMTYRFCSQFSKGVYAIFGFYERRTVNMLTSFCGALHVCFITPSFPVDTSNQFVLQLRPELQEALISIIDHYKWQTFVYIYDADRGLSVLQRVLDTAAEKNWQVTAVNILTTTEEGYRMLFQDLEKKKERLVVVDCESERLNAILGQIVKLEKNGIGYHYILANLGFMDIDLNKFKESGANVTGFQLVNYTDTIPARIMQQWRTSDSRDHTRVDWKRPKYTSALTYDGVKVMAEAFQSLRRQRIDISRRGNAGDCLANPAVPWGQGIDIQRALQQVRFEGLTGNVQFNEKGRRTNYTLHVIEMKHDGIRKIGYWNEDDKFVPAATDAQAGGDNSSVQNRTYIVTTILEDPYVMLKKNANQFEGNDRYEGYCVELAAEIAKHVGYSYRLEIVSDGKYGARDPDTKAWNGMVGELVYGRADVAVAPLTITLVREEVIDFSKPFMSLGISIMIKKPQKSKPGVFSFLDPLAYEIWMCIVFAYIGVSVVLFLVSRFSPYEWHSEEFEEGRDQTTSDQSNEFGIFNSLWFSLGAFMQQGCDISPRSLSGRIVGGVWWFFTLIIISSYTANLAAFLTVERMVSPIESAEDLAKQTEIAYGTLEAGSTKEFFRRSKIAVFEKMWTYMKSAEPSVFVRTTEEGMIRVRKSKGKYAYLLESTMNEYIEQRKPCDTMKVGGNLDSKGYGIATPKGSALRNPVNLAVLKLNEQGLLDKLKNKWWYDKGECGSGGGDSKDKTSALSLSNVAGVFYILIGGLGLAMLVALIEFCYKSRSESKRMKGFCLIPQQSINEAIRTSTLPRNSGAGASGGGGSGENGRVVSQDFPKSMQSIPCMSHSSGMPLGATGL
UniProt Q71RJ2: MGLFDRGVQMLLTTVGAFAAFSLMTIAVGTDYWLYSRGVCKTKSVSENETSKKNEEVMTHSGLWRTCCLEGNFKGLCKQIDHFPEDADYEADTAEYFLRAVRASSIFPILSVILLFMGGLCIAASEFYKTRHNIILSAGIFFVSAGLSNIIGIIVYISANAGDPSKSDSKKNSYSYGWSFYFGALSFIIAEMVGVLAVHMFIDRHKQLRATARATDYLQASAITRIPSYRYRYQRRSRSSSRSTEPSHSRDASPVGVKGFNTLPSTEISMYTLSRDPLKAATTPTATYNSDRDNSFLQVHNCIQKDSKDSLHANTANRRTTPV

Target: GluA1 subunit of native AMPA receptors from rat cerebellum (rat (endogenous in cerebellum)) (UniProt P19490)
Test: affinity purification with mass spectrometry; rat cerebellum in 2% digitonin with (R,R)-2b and MPQX; GluA1 captured by 11B8 scFv–GFP–3C–Twin-Strep on Strep-Tactin XT (GluA2-containing receptors kept on the resin by 15F1 Fab), 3C release, FSEC; western blot and mass spectrometry

TARP γ2 (from UniProt Q71RJ2 1-323)
binding: binds
